Source: the supplement of paper PMC12819154, “High-throughput peptide-centric local stability assay extends protein–ligand identification to membrane proteins, tissues and bacteria” (Nature Structural & Molecular Biology, 2025)
Some of the results follow. Most entries show no effect beyond the scatter of the controls.

Protein sequences, listed by entry. Tags and fused reporters are not part of them. Lines headed by an entry give the natural chain unless they say otherwise; changes in a name come on top.
UniProt P68363, whole entry: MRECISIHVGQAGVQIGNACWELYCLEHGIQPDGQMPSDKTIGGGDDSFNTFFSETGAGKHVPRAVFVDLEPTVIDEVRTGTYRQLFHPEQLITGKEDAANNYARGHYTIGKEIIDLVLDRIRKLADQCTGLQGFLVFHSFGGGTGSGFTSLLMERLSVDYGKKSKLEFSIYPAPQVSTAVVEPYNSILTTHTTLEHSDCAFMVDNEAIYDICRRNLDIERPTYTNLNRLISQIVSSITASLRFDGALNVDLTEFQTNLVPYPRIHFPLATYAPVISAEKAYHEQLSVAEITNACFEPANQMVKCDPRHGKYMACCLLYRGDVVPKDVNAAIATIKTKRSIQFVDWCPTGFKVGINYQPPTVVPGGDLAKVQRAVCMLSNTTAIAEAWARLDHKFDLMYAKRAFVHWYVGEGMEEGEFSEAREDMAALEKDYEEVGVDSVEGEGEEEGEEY
UniProt P55735: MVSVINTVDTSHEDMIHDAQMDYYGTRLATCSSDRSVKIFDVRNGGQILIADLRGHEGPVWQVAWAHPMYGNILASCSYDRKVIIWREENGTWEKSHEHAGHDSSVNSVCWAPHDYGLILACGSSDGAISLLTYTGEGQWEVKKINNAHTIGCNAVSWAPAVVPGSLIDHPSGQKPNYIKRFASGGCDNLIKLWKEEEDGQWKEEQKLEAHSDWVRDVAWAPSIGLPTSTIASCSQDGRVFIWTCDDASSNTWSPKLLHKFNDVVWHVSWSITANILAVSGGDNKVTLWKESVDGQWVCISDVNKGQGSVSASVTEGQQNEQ
UniProt P61586, whole entry: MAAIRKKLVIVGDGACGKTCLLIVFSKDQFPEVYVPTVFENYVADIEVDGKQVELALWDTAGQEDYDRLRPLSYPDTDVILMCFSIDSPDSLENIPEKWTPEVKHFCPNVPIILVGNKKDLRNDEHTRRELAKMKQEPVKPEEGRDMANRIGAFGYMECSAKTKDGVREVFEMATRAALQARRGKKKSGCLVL
UniProt P78337, whole entry: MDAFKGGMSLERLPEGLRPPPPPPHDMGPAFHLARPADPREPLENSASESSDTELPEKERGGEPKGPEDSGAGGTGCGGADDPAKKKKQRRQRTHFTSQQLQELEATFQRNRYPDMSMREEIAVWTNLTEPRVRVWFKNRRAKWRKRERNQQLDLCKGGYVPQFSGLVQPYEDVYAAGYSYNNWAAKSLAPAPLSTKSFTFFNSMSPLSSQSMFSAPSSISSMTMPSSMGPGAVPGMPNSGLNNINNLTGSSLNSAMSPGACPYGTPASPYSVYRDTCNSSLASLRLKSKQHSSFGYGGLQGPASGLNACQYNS
UniProt P69905, whole entry: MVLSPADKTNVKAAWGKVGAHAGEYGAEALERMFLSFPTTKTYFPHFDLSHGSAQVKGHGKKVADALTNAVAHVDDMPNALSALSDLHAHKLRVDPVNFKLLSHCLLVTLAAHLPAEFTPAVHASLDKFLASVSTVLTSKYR
UniProt P54868: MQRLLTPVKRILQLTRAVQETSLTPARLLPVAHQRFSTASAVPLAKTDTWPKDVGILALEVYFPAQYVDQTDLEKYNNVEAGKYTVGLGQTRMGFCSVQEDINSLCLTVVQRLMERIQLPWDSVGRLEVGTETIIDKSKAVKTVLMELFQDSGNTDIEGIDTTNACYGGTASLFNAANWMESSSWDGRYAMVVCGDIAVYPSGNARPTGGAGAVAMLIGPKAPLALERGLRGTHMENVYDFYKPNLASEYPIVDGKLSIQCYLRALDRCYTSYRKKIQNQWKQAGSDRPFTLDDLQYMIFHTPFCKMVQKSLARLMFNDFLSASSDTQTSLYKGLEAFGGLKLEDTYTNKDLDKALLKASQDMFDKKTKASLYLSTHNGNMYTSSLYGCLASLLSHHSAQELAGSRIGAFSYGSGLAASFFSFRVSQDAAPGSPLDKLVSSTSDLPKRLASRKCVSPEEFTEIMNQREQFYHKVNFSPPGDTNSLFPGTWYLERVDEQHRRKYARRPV
UniProt P55081: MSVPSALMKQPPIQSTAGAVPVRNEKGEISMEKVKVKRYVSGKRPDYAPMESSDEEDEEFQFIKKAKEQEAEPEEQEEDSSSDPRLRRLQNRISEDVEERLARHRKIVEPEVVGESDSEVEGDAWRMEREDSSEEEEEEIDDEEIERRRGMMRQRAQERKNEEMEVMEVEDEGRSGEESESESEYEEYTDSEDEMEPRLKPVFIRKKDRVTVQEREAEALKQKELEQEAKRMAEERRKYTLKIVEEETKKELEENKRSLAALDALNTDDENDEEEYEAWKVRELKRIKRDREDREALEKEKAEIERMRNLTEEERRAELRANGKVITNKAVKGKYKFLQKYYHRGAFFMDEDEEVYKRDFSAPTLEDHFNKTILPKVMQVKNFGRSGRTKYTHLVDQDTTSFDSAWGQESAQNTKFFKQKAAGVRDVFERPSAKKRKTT

Each target was assayed with Cc1nc(Nc2ncc(C(=O)Nc3c(C)cccc3Cl)s2)cc(N2CCN(CCO)CC2)n1 [dasatinib] (assay: log2 fold change of tryptic peptide abundance, ligand vs vehicle (limited proteolysis) (log2 ratio); higher = more trypsin-susceptible (destabilized)). Conditions: ligand concentration: 5 uM; sample: K562 cleared lysate.

Q: How did the log2 fold change turn out when “UniProt P63000 (peptide sequence: KLTPITYPQGLAMAK, peptide start residue: 133)” was run?
A: The log2 fold change was -0.417.

Q: Which log2 fold change does the source give for “UniProt P68363 (peptide sequence: EIIDLVLDR, peptide start residue: 113)” here?
A: The log2 fold change was -0.0554.

Q: For “SEC13 (peptide sequence: VIIWREENGTWEK, peptide start residue: 83) (UniProt P55735)”, which log2 fold change is on record?
A: The log2 fold change was -0.173.

Q: Which log2 fold change does the source give for “RHOA (peptide sequence: IGAFGYMECSAK, peptide start residue: 151) (UniProt P61586)” here?
A: The log2 fold change was -0.124.

Q: With “PITX1 (peptide sequence: NRYPDMSMR, peptide start residue: 111) (UniProt P78337)” as the target, how does the log2 fold change read?
A: Its log2 fold change is 0.43.

Q: With “POLR2F (peptide sequence: RITTPYMTK, peptide start residue: 51) (UniProt P61218)” as the target, how does the log2 fold change read?
A: The log2 fold change was 0.415.

Q: With “HBA1 (peptide sequence: VLSPADKTNVK, peptide start residue: 2) (UniProt P69905)” as the target, how does the log2 fold change read?
A: Its log2 fold change is -0.111.

Q: How did the log2 fold change turn out when “HMGCS2 (peptide sequence: LEVGTETIIDK, peptide start residue: 90) (UniProt P54868)” was run?
A: The log2 fold change was -0.156.

Q: Which log2 fold change does the source give for “MFAP1 (peptide sequence: DFSAPTLEDHFNK, peptide start residue: 359) (UniProt P55081)” here?
A: Its log2 fold change is -0.0723.
